Data as given in PubChem BioAssay AID1259254 (NCATS, 2017).
The deposit covers about 59,000 reagents; below is a random part of them. About 1,550 of all reagents (2.6%) count as active. 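G2 share is only a proxy for re-replication; each gene was hit by three separate siRNAs, and active genes were retested.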 Raw values vary from plate to plate and are shown uncorrected. Reagents against one gene are numbered here. Not stated in the record: the amount of reagent.

- Aim: 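Gene knock-downs that lead to re-replication, shown by excess G2 DNA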 (primary screen)
- Cells: human HCT116 colorectal cancer cells
- Reagent: single siRNA against human genes
- Timing: 3 days
- Read-out: 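Nuclei stained with Hoechst and imaged; cell-cycle phase assigned by DNA content; G2 share scaled per plate, non-targeting siRNA 0%, GMNN siRNA 100%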
- Reading the numbers: G2 robust z-score and G2 cells, % of GMNN control: higher = more G2 cells, more excess DNA replication; raw share of cells in G2: higher = larger share of cells with G2 DNA content
- Hit rule: 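An siRNA counts as active if its G2 robust z-score lies at least 5 MADs above the screen median; here such calls match roughly 38% of GMNN control or more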

no.	target gene	reagent	G2 robust z-score	G2 cells, % of GMNN control	raw share of cells in G2 (%)	outcome
1	OPN1SW (opsin 1, short wave sensitive)	1	-1.69	-8.96	2.64	inactive
2	OPN1SW (opsin 1, short wave sensitive)	2	-0.681	-1.82	2.71	inactive
3	OPN1SW (opsin 1, short wave sensitive)	3	0.718	8.02	7.32	inactive
4	CDK18 (cyclin dependent kinase 18)	1	-0.665	-1.71	5.04	inactive
5	CDK18 (cyclin dependent kinase 18)	2	-1.14	-5.02	3.72	inactive
6	CDK18 (cyclin dependent kinase 18)	3	-0.873	-3.18	2.91	inactive
7	GPSM3 (G protein signaling modulator 3)	1	-0.442	-0.143	5.59	inactive
8	GPSM3 (G protein signaling modulator 3)	2	0.235	4.62	5.98	inactive
9	GPSM3 (G protein signaling modulator 3)	3	-0.716	-2.07	3.47	inactive
10	TRPV4	1	1.71	15	10.7	inactive
11	TRPV4	2	4.6	35.3	16.7	inactive
12	TRPV4	3	7.58	56.3	26.4	active
13	CNTN6 (contactin 6)	1	-0.611	-1.33	5.56	inactive
14	CNTN6 (contactin 6)	2	-0.462	-0.28	4.09	inactive
15	CNTN6 (contactin 6)	3	-0.0695	2.48	4.8	inactive
16	IGLL3P (immunoglobulin lambda like polypeptide 3, pseudogene)	1	-0.686	-1.86	3.3	inactive
17	IGLL3P (immunoglobulin lambda like polypeptide 3, pseudogene)	2	0.86	9.02	5.83	inactive
18	IGLL3P (immunoglobulin lambda like polypeptide 3, pseudogene)	3	-0.291	0.918	3.22	inactive
19	TPM4 (tropomyosin 4)	1	-0.865	-3.12	3.45	inactive
20	TPM4 (tropomyosin 4)	2	1.65	14.6	9.68	inactive
21	TPM4 (tropomyosin 4)	3	-0.226	1.38	6.18	inactive
22	SLC4A10	1	2.06	17.5	12.9	inactive
23	SLC4A10	2	-0.939	-3.64	3.06	inactive
24	SLC4A10	3	-0.599	-1.24	3.77	inactive
25	PFN4 (profilin family member 4)	1	-1.13	-4.95	2.07	inactive
26	PFN4 (profilin family member 4)	2	-0.278	1.01	3.84	inactive
27	PFN4 (profilin family member 4)	3	0.48	6.35	7.36	inactive

Reagents listed so far marked active, once more:
target gene	reagent	G2 robust z-score	G2 cells, % of GMNN control	raw share of cells in G2 (%)	outcome
TRPV4	3	7.58	56.3	26.4	active

The listing continues.
no.	target gene	reagent	G2 robust z-score	G2 cells, % of GMNN control	raw share of cells in G2 (%)	outcome
28	ANGPTL8 (angiopoietin like 8)	1	-1.01	-4.16	1.71	inactive
29	ANGPTL8 (angiopoietin like 8)	2	0.743	8.2	7.58	inactive
30	ANGPTL8 (angiopoietin like 8)	3	0.0172	3.09	5.94	inactive
31	PDZD4 (PDZ domain containing 4)	1	-0.211	1.48	4.93	inactive
32	PDZD4 (PDZ domain containing 4)	2	-0.556	-0.944	4.01	inactive
33	PDZD4 (PDZ domain containing 4)	3	-0.68	-1.82	2.45	inactive
34	TTC36 (tetratricopeptide repeat domain 36)	1	-0.394	0.193	2.97	inactive
35	TTC36 (tetratricopeptide repeat domain 36)	2	-0.419	0.0188	3.07	inactive
36	TTC36 (tetratricopeptide repeat domain 36)	3	0.979	9.85	7.13	inactive
37	RFX4 (regulatory factor X4)	1	-0.508	-0.606	3.22	inactive
38	RFX4 (regulatory factor X4)	2	-0.745	-2.28	3.78	inactive
39	RFX4 (regulatory factor X4)	3	0.605	7.23	5.73	inactive
40	CCP110 (centriolar coiled-coil protein 110)	1	-0.734	-2.2	4.34	inactive
41	CCP110 (centriolar coiled-coil protein 110)	2	0.18	4.23	5.71	inactive
42	CCP110 (centriolar coiled-coil protein 110)	3	1.7	14.9	8.84	inactive
43	MSN (moesin)	1	-0.387	0.244	3.28	inactive
44	MSN (moesin)	2	0.6	7.19	8.14	inactive
45	MSN (moesin)	3	2.61	21.3	13.9	inactive
46	CELSR1 (cadherin EGF LAG seven-pass G-type receptor 1)	1	2.73	22.1	13.8	inactive
47	CELSR1 (cadherin EGF LAG seven-pass G-type receptor 1)	2	1.23	11.6	8.59	inactive
48	CELSR1 (cadherin EGF LAG seven-pass G-type receptor 1)	3	2.14	18	8.8	inactive
49	NUSAP1 (nucleolar and spindle associated protein 1)	1	5.62	42.5	20.1	active
50	NUSAP1 (nucleolar and spindle associated protein 1)	2	-0.294	0.9	4.89	inactive
51	NUSAP1 (nucleolar and spindle associated protein 1)	3	-0.424	-0.0126	3.25	inactive
52	HS6ST2 (heparan sulfate 6-O-sulfotransferase 2)	1	7.19	53.6	28	active
53	HS6ST2 (heparan sulfate 6-O-sulfotransferase 2)	2	1.45	13.2	9.45	inactive
54	HS6ST2 (heparan sulfate 6-O-sulfotransferase 2)	3	-0.306	0.817	6.05	inactive
55	DRC10 (dynein regulatory complex subunit 10)	1	0.381	5.64	6.35	inactive
56	DRC10 (dynein regulatory complex subunit 10)	2	-0.84	-2.94	2.45	inactive
57	DRC10 (dynein regulatory complex subunit 10)	3	-0.955	-3.75	0.722	inactive
58	PPP1R3F (protein phosphatase 1 regulatory subunit 3F)	1	-0.498	-0.535	4.62	inactive
59	PPP1R3F (protein phosphatase 1 regulatory subunit 3F)	2	3.99	31	13.7	inactive
60	PPP1R3F (protein phosphatase 1 regulatory subunit 3F)	3	2.45	20.2	9.57	inactive
61	TMEM40 (transmembrane protein 40)	1	0.131	3.89	6.02	inactive
62	TMEM40 (transmembrane protein 40)	2	-0.291	0.919	4.52	inactive
63	TMEM40 (transmembrane protein 40)	3	-0.539	-0.825	2.87	inactive
64	C7orf33 (chromosome 7 open reading frame 33)	1	-1.1	-4.8	1.84	inactive
65	C7orf33 (chromosome 7 open reading frame 33)	2	2.73	22.2	10.7	inactive
66	C7orf33 (chromosome 7 open reading frame 33)	3	0.485	6.38	5.23	inactive
67	CACNB4 (calcium voltage-gated channel auxiliary subunit beta 4)	1	-0.875	-3.19	4.13	inactive
68	CACNB4 (calcium voltage-gated channel auxiliary subunit beta 4)	2	-0.619	-1.39	4.31	inactive
69	CACNB4 (calcium voltage-gated channel auxiliary subunit beta 4)	3	-1.17	-5.28	2.32	inactive
